## Results of single-concentration screens

From ChEMBL document CHEMBL3988442, “University of Dundee, Small-Polar-MMV Screening Library” (2021).

The filed quantity is “Percent Effect” (%). How 0% and 100% were set is not recorded. Most values in the screen are low, and negative values occur. Compounds were drawn at random from those tested, without regard to their results. Two or more numbers in one place are separate tests of the same structure; such repeats can differ widely.

A: 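Growth of Mycobacterium tuberculosis over 3 days (7H9 medium with glucose and tyloxapol); the read-out is not stated. Tested at 50 µM. Direction is inferred from retests: higher values go with more growth inhibition. Of about 69,000 compounds tested this way, about 760 (1.1%) reached 50% or more in at least one test.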
B: 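Phenotypic screen: M. tuberculosis growth, cholesterol and DPPC medium, 4 days; the read-out is not stated. Concentration: 50 µM. Direction is inferred from retests: higher values go with more growth inhibition. About 69,000 compounds were tested under these conditions; 0.54% (about 370) showed 50% or more at least once.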

compound: O=C(CCc1cc2n(n1)CCCN(C(=O)c1ccccn1)C2)NC1CC1
A: 6.659% & 13.12%
B: -16.85%

compound: [H][C@@]12CN(C(=O)c3cc(C)oc3C)C[C@]1([H])[C@H]2CN(C)CCCn1cccn1
A: -13.09%
B: -3.172%

compound: O=C(CCCOc1ccc(F)cc1)N1CCCC(n2cccn2)C1 (centres unmarked)
A: -9.544%
B: -6.105%

compound: Cc1csc(C2NC3(CCCC3)C(=O)N2CC2CC2)n1 (centres unmarked)
A: 13.33%
B: 9.271%

compound: O=C(c1cnccn1)N1CCC2(CCCN(Cc3ccoc3)C2)C1 (centres unmarked)
A: -12.3% & -0.5492%
B: -3.352%

compound: CC(C)(C)CN[C@@H]1CO[C@H](CNC(=O)Nc2ccccc2)[C@H]1O
A: -2.819% & -22.91%
B: -16.75%

compound: COc1cc(Oc2ccc(C(N)=O)cn2)ccc1CN1CCCC1
A: -17.84%
B: -7.559%

compound: CCOCCOC(C)C(=O)Nc1ccc2ccn(CCN(C)C)c2c1 (centres unmarked)
A: 30.08%
B: 9.737%

compound: CCCc1nc(N2CCCC3(CCNC3)C2)c2cnn(C)c2n1 (centres unmarked)
A: -0.9646%
B: -10.93%

compound: Cc1cnccc1CN1CCN(C)C2(CCC(=O)N(CC3CC3)CC2)C1 (centres unmarked)
A: -15.65%
B: -13.21% & -5.45%

compound: CCN(CC)S(=O)(=O)c1cc(Br)ccc1OC
A: -6.452%
B: -11.51%

compound: CC(C(=O)N1CCCN(Cc2ccc(C#N)cc2)CC1)n1cncn1 (centres unmarked)
A: 16.34%
B: -0.5285%

compound: O=C1CN(Cc2nnc(-c3ccc(Cl)cc3)o2)CCN1
A: -16.42%
B: -43%

compound: CCC(C)(C)N(C)CCOc1cccc(S(C)(=O)=O)c1
A: -25.02%
B: -0.5046% & -0.7569%

compound: O=C1CCC(c2ccc(Cl)cc2)=NN1CN1CCSCC1
A: 30.42%
B: -5.685%

compound: CC(C)OCCC(=O)Nc1ncn(CC(=O)N2CCCCCC2)n1
A: -1.727% & -15.82%
B: -8.226%

compound: CC(C)C(Sc1nnc(C2CC2)n1C1CC1)C(=O)NCc1cccnc1 (centres unmarked)
A: -4.811%
B: -9.333%

compound: O=C(O)C(F)(F)F.O=C(c1cccs1)N1CC[C@@H](N2CCOCC2)[C@@H]1Cc1ccccc1
A: -26.76%
B: -18.4%

compound: Cn1cnnc1C1CCCN(C(=O)NCc2ccc3c(c2)OCO3)C1 (centres unmarked)
A: 6.032%
B: -5.908%

compound: COCCC(=O)N(C)CCC1=CCN(C)CC1
A: -7.611%
B: 3.151%

compound: O=C(c1nnn(-c2ccccc2F)c1-c1ccccn1)N1CCSCC1
A: 8.799% & 6.611%
B: 5.797%

compound: Cc1noc(C)c1C(=O)NCC(C)N1CCc2ccccc21 (centres unmarked)
A: 1.614%
B: 1.452%

compound: Cn1cc(CN2CCc3c(c(COCC#N)nn3C)C2)cn1
A: 2.4%
B: -5.162%

compound: Cc1cccc(C(=O)NCc2ccc(S(N)(=O)=O)cc2)n1
A: -11.24%
B: -20.62%

compound: Fc1ccc(CN2CCC3(CC2)CC(c2cccnc2)CO3)cc1.O=C(O)C(F)(F)F.O=C(O)C(F)(F)F (centres unmarked)
A: 9.459%
B: -6.022%

compound: CC(C)N1CCC(Nc2ccn(CCC#N)n2)C1=O (centres unmarked)
A: -0.4348% & 19.21%
B: -0.09206% & -11.32%

compound: Cc1cn2c(n1)CCC(NC(=O)c1ccc(CS(C)(=O)=O)cc1)C2 (centres unmarked)
A: 4.101%
B: 1.375%

compound: CCN(CC)C(=O)NC(C)c1ccc(Oc2cccnc2)c(F)c1 (centres unmarked)
A: -32.55%
B: -14.25%

compound: Cl.Cl.OC(CN1CCN(Cc2cccc(F)c2)CC1)C1CC1 (centres unmarked)
A: 6.466%
B: 8.39%

Repeated from the top, 2 entries:

{"compound": "O=C(CCc1cc2n(n1)CCCN(C(=O)c1ccccn1)C2)NC1CC1", "A": "6.659 & 13.12", "B": -16.85}
{"compound": "[H][C@@]12CN(C(=O)c3cc(C)oc3C)C[C@]1([H])[C@H]2CN(C)CCCn1cccn1", "A": -13.09, "B": -3.172}